The record followed here is publication PMC3944714.

In the assay the target is T1, GST-ATF2 (UniProt P15336).
T1 sequence: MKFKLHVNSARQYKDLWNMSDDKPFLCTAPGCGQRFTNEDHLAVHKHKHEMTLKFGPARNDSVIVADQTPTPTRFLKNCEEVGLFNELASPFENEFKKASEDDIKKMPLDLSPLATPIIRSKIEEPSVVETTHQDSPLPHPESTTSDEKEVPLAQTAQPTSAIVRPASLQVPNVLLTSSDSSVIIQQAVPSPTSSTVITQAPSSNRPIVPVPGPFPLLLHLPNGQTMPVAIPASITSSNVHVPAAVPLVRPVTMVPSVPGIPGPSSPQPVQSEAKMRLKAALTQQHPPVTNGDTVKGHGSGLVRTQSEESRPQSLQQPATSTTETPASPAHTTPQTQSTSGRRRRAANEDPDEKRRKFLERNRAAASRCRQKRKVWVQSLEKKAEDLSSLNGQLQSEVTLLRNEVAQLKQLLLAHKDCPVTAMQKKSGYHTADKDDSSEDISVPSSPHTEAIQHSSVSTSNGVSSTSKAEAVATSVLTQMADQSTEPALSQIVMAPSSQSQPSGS
As to the kind of experiment: pull-down; only the target purified.

No constants are given. Whether binding was seen depends on the method and setting. In cells and extracts the contact can be indirect. Some results given as binding are weak or reduced against the parent protein; the word gives no strength. Sequences can lack the tags named with a protein.

B1: His-MCAF1 (protein, UniProt Q6VMQ6 1-1270)
chain: MDSLEEPQKKVFKARKTMRVSDRQQLEAVYKVKEELLKTDVKLLNGNHENGDLDPTSPLENMDYIKDKEEVNGIEEICFDPEGSKAEWKETPCILSVNVKNKQDDDLNCEPLSPHNITPEPVSKLPAEPVSGDPAPGDLDAGDPASGVLASGDSTSGDPTSSEPSSSDAASGDATSGDAPSGDVSPGDATSGDATADDLSSGDPTSSDPIPGEPVPVEPISGDCAADDIASSEITSVDLASGAPASTDPASDDLASGDLSSSELASDDLATGELASDELTSESTFDRTFEPKSVPVCEPVPEIDNIEPSSNKDDDFLEKNGADEKLEQIQSKDSLDEKNKADNNIDANEETLETDDTTICSDRPPENEKKVEEDIITELALGEDAISSSMEIDQGEKNEDETSADLVETINENVIEDNKSENILENTDSMETDEIIPILEKLAPSEDELTCFSKTSLLPIDETNPDLEEKMESSFGSPSKQESSESLPKEAFLVLSDEEDISGEKDESEVISQNETCSPAEVESNEKDNKPEEEEQVIHEDDERPSEKNEFSRRKRSKSEDMDNVQSKRRRYMEEEYEAEFQVKITAKGDINQKLQKVIQWLLEEKLCALQCAVFDKTLAELKTRVEKIECNKRHKTVLTELQAKIARLTKRFEAAKEDLKKRHEHPPNPPVSPGKTVNDVNSNNNMSYRNAGTVRQMLESKRNVSESAPPSFQTPVNTVSSTNLVTPPAVVSSQPKLQTPVTSGSLTATSVLPAPNTATVVATTQVPSGNPQPTISLQPLPVILHVPVAVSSQPQLLQSHPGTLVTNQPSGNVEFISVQSPPTVSGLTKNPVSLPSLPNPTKPNNVPSVPSPSIQRNPTASAAPLGTTLAVQAVPTAHSIVQATRTSLPTVGPSGLYSPSTNRGPIQMKIPISAFSTSSAAEQNSNTTPRIENQTNKTIDASVSKKAADSTSQCGKATGSDSSGVIDLTMDDEESGASQDPKKLNHTPVSTMSSSQPVSRPLQPIQPAPPLQPSGVPTSGPSQTTIHLLPTAPTTVNVTHRPVTQVTTRLPVPRAPANHQVVYTTLPAPPAQAPLRGTVMQAPAVRQVNPQNSVTVRVPQTTTYVVNNGLTLGSTGPQLTVHHRPPQVHTEPPRPVHPAPLPEAPQPQRLPPEAASTSLPQKPHLKLARVQSQNGIVLSWSVLEVDRSCATVDSYHLYAYHEEPSATVPSQWKKIGEVKALPLPMACTLTQFVSGSKYYFAVRAKDIYGRFGPFCDPQSTDVISSTQSS
As to B1, the binding result was “binds”.
